Measured values taken from patent publication US20230000869A1, “NOVEL ALK2 INHIBITORS AND METHODS FOR INHIBITING BMP SIGNALING” (The Brigham and Women's Hospital, Inc., priority 2017, published 2023).
pIC50: −log10 of the molar value. The match of structure and compound is tentative.

The chains behind the UniProt entries cited, without tags or fusion partners. Residues count along the entry.
UniProt P37172, 21-509 limits assumed: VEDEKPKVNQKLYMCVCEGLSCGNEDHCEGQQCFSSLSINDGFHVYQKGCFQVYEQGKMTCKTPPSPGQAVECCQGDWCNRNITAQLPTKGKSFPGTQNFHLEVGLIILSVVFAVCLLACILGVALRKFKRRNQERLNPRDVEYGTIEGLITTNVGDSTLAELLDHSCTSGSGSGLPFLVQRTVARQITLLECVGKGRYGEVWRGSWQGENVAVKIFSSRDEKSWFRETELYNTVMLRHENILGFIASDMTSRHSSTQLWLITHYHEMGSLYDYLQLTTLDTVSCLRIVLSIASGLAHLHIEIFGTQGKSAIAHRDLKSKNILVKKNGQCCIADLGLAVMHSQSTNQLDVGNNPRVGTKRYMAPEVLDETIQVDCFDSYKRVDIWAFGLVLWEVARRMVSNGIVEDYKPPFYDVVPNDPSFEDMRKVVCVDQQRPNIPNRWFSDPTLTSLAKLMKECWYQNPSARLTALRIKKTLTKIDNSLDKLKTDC

Test system: TGFβ
Test: Luciferase reporter gene assay for TGFβ activity (HEK293T SBE-Luc SMAD2/3 reporter, TGFβ agonist)
Settings: read-out: TGFβ IC50, TGFβ 5 ng/mL

| Compound | pIC50 |
| --- | --- |
| COc1cc2c(-c3cnn4cc(N5CCN(C6CNC6)CC5)cnc34)ccnc2cc1F | 6.20 |
| COc1cc2c(-c3cnn4cc(N5CC6(CC(N(C)C)C6)C5)cnc34)ccnc2cc1F | 7.48 |
| Cc1cc(-c2cnn3cc(N4CCC5(CC4)CN(C)C5)cnc23)c2ccccc2n1 | 7.74 |
| CN1CCN(C2CCN(c3cnc4c(-c5c[nH]c(=O)c6ccccc56)cnn4c3)CC2)CC1 | 7.06 |
| COc1cc2c(-c3cnn4cc(N5CC6(CC(N)C6)C5)cnc34)ccnc2cc1F | 7.17 |

The remaining compounds from weak to strong by pIC50, led by results:

| pIC50 | Compound |
| --- | --- |
| 6.36 | COc1cc2c(-c3cnc4cc(N5CC(N6CCN(C)CC6)C5)cnn34)ccnc2cc1F [Compound 335] |
| 6.96 | COc1cc2c(-c3cnn4cc(N5C[C@H]6CNC[C@H]6C5)cnc34)ccnc2cc1F (relative stereo) |
| 7.00 | COc1cc2c(-c3cnn4cc(N5CC(N6CCS(=O)(=O)CC6)C5)cnc34)ccnc2cc1F |

Target: ALK2 (Mus musculus, UniProt P37172)
Test: Luciferase reporter gene assay for ALK2 activity (C2C12 BRE-Luc SMAD1/5/8 reporter, BMP6 agonist)
Settings: read-out: ALK2 IC50, BMP6 50 ng/mL

| Compound | pIC50 |
| --- | --- |
| COc1cc2c(-c3cnn4cc(N5CCN(C6CNC6)CC5)cnc34)ccnc2cc1F | 6.02 |
| COc1cc2c(-c3cnn4cc(N5CC6(CC(N(C)C)C6)C5)cnc34)ccnc2cc1F | 8.52 |
| Cc1cc(-c2cnn3cc(N4CCC5(CC4)CN(C)C5)cnc23)c2ccccc2n1 | 7.32 |
| CN1CCN(C2CCN(c3cnc4c(-c5c[nH]c(=O)c6ccccc56)cnn4c3)CC2)CC1 | 7.51 |
| COc1cc2c(-c3cnn4cc(N5CC6(CC(N)C6)C5)cnc34)ccnc2cc1F | 7.96 |

Now from value to compound:

| pIC50 | Compound |
| --- | --- |
| 7.32 | COc1cc2c(-c3cnc4cc(N5CC(N6CCN(C)CC6)C5)cnn34)ccnc2cc1F [Compound 335] |
| 8.22 | COc1cc2c(-c3cnn4cc(N5C[C@H]6CNC[C@H]6C5)cnc34)ccnc2cc1F (relative stereo) |
| 7.82 | COc1cc2c(-c3cnn4cc(N5CC(N6CCS(=O)(=O)CC6)C5)cnc34)ccnc2cc1F |
